According to the supplement of paper PMC10849652:
The list shows a part of the results.

The chains behind the UniProt entries cited, without tags or fusion partners. Where a name states a change or a piece, a line headed by the entry shows the natural chain unless it says otherwise.
UniProt O60506: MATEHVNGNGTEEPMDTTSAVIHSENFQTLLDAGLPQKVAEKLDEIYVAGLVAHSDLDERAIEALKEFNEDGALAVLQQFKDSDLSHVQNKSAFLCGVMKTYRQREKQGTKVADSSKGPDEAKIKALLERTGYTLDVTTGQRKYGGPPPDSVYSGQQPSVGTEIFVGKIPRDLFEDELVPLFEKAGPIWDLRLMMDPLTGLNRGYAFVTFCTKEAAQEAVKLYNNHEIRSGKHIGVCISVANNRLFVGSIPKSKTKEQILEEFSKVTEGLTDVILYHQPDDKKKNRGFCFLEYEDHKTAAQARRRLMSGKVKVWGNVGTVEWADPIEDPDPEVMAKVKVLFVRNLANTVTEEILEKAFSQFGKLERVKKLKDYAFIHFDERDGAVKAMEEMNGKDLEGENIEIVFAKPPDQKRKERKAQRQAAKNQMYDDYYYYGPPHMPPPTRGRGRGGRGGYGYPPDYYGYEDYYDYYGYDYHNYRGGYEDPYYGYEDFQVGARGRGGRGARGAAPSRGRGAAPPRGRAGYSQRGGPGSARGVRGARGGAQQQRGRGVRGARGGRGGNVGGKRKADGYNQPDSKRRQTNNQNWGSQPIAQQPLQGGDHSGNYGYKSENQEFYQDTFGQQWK
UniProt Q6NXT6: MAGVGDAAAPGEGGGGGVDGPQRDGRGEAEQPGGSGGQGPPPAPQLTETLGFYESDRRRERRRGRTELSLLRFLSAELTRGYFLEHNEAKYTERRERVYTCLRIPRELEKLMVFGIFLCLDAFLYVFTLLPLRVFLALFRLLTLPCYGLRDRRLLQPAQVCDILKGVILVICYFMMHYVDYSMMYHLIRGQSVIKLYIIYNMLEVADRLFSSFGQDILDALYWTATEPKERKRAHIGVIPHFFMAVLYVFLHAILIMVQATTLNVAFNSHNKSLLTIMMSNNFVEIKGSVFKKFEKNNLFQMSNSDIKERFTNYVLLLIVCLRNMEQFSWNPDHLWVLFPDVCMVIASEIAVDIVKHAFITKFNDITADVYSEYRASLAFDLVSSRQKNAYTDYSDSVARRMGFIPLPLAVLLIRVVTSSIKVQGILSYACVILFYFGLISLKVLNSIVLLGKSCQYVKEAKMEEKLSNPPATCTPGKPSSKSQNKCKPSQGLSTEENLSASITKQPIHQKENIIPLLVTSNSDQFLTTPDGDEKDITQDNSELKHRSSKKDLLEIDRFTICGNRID
UniProt Q15750: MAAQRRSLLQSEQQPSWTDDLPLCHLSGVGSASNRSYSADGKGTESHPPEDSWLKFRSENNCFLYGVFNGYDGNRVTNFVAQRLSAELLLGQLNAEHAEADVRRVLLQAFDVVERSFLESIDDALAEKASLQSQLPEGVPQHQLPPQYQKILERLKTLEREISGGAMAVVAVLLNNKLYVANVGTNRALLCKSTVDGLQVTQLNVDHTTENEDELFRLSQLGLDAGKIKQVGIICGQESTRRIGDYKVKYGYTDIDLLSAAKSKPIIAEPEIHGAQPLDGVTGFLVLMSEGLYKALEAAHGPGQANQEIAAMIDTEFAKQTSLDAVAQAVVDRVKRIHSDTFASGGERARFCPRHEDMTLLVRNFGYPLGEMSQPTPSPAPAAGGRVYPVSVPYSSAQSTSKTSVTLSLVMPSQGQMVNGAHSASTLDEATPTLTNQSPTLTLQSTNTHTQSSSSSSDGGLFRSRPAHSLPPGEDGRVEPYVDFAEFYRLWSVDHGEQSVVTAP
UniProt O00186: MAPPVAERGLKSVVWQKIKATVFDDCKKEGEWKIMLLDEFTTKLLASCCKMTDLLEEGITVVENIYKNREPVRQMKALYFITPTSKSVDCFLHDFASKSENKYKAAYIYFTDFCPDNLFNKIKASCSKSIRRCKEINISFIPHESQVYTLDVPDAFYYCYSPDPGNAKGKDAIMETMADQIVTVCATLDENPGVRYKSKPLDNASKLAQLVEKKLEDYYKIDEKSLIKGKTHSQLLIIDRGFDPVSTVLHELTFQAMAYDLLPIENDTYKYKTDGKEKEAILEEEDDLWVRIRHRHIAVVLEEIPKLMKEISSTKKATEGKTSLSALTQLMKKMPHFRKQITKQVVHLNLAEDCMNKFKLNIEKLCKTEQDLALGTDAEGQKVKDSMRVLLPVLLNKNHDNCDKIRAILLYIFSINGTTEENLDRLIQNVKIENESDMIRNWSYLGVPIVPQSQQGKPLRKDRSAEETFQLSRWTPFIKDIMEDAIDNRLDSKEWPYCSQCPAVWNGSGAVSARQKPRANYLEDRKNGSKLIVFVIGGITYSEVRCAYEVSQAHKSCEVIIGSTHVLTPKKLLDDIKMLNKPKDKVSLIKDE
UniProt Q9NRL3: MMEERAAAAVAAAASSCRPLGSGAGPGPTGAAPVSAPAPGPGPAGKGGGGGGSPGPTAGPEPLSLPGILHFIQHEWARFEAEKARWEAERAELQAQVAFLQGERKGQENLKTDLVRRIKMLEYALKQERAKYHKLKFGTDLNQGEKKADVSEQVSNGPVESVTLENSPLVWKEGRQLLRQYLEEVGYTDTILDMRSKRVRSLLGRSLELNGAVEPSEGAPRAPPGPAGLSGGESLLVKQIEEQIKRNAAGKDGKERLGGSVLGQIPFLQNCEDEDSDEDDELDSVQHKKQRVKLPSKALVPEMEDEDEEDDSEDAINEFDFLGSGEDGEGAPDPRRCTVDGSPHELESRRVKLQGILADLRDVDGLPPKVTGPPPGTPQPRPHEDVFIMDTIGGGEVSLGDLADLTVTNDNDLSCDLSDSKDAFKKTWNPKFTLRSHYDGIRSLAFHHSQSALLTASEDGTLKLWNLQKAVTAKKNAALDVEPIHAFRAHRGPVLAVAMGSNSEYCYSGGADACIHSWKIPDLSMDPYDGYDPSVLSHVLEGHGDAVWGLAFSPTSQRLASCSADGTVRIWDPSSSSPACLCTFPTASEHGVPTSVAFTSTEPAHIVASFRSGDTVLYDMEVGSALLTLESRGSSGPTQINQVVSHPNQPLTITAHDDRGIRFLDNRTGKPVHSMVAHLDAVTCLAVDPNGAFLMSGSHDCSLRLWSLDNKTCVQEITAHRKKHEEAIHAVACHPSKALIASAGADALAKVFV
UniProt Q6ICL3: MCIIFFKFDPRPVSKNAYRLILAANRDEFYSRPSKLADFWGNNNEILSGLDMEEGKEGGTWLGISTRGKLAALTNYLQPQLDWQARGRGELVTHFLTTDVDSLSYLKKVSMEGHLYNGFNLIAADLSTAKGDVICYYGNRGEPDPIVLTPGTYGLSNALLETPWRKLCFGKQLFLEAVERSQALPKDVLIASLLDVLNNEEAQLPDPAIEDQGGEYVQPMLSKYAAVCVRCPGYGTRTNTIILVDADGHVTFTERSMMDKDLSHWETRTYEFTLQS
UniProt O60499: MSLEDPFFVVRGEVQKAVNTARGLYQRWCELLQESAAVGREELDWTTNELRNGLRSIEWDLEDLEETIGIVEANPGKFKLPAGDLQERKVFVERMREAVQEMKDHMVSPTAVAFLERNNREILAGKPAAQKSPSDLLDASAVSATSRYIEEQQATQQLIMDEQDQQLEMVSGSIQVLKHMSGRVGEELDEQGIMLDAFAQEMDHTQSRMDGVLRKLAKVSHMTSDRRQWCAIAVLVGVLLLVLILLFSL
UniProt Q9NZ72: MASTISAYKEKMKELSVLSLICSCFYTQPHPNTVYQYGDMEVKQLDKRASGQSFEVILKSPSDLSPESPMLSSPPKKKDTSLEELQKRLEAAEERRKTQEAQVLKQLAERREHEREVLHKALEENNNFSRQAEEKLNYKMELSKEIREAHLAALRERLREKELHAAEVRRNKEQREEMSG
UniProt P46977: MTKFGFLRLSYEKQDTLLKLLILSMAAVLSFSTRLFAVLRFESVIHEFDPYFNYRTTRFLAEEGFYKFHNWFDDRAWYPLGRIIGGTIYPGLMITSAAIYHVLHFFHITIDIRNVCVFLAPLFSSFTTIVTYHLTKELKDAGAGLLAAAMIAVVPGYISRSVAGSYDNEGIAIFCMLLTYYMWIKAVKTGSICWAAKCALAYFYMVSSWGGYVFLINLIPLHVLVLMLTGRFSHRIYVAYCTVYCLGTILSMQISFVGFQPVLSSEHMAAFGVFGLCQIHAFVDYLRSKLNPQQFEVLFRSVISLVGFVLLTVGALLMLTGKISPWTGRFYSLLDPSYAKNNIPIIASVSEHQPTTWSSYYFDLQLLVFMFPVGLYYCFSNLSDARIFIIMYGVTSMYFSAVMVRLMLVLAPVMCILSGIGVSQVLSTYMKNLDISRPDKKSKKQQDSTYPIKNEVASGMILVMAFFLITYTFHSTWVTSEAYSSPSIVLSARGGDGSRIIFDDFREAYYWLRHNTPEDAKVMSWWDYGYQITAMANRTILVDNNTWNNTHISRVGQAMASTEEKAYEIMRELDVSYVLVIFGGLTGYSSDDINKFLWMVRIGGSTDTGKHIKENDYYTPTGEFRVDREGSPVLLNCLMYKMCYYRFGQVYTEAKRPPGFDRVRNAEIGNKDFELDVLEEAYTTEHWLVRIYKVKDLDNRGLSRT
UniProt O75683: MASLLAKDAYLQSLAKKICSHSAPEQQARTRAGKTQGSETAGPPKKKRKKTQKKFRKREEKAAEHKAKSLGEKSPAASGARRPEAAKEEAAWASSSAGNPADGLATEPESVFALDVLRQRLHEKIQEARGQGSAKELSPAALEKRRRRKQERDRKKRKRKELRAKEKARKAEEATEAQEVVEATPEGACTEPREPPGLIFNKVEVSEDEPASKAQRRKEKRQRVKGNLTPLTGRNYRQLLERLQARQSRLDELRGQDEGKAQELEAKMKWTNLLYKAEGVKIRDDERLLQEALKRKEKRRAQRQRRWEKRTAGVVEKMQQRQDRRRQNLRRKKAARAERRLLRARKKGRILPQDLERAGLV
UniProt Q8IYB8: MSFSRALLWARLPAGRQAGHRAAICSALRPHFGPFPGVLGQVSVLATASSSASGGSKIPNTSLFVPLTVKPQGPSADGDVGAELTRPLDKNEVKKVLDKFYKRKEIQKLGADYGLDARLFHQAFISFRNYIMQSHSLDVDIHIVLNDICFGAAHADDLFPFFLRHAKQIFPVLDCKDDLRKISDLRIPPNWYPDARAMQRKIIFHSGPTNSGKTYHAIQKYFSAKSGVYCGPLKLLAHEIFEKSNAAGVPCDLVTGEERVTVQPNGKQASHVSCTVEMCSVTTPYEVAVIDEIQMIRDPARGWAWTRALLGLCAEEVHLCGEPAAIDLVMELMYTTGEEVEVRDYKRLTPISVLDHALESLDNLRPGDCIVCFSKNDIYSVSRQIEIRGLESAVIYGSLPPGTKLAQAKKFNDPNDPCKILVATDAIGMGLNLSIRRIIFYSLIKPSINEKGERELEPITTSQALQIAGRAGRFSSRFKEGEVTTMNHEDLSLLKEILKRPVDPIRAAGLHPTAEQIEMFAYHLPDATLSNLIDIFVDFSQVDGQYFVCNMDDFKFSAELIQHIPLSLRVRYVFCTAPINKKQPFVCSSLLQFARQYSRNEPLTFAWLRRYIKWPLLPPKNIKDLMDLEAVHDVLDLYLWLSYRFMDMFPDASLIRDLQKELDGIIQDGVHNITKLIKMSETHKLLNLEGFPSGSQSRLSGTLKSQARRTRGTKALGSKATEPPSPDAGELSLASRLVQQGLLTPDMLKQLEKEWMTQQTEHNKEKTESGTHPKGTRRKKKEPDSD
UniProt Q15545, whole entry, looked up: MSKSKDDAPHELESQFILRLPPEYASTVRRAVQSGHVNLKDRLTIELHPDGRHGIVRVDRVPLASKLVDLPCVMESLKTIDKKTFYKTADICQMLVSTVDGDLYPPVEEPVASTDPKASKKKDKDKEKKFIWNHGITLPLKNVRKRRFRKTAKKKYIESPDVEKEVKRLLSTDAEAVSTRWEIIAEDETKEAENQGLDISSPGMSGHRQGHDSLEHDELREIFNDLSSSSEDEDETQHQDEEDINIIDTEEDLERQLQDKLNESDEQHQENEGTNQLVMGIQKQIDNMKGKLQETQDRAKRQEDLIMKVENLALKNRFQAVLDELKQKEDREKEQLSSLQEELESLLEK
UniProt Q86Y82: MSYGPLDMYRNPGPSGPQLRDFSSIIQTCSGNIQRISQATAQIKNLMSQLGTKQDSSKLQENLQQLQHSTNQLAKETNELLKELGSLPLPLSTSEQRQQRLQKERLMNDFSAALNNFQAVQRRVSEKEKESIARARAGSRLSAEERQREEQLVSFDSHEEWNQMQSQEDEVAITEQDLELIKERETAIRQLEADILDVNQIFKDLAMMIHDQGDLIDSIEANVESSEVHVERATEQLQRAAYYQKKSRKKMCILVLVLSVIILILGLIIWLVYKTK
UniProt Q96A49: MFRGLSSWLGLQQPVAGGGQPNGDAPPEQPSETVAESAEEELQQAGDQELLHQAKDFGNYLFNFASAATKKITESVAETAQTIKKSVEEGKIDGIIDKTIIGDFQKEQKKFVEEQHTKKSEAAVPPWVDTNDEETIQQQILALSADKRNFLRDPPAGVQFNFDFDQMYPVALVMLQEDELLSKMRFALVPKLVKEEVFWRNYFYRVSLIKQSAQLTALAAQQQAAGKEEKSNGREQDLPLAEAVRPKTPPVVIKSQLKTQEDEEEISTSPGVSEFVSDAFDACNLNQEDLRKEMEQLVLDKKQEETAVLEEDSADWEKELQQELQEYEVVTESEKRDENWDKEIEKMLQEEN

How the values were obtained:
Assay in all cases: log2 fold change, soluble protein after heating vs DMSO (PISA); higher = thermal stabilisation; K562 cells, 10 uM, 30 min; active = over 0.2 and 3.5 SD of the protein, either way, in both replicates (recomputed)
[1] = compound: CC[C@@H]1C(=O)N(C)c2cnc(Nc3ccc(C(=O)NC4CCN(C)CC4)cc3OC)nc2N1C1CCCC1
How it was run: (§1)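 For each measurement, 10 μM compound was applied for 30 min to K562 cells at 2×10^6 cells/mL. Aliquots were heated for 3 min across 48°C-58°C, pooled, and extracted in PBS with 0.5% NP-40 at 4°C; the supernatant after 21,000xg for 90 min was soluble protein. This was quantified by TMTpro 16plex LC-MS/MS with channel sums equalised, and thermal stability was reported relative to control samples from duplicates, on a log2 fold-change scale.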

volasertib = compound: CC[C@@H]1C(=O)N(C)c2cnc(Nc3ccc(C(=O)N[C@H]4CC[C@H](N5CCN(CC6CC6)CC5)CC4)cc3OC)nc2N1C(C)C [volasertib]
How it was run: as §1

[2] = compound: CC[C@H](C)N1C=C(C2=C(C=C(C=C21)C3=CN=C(C=C3)N4CCNCC4)C(=O)NCC5=C(C=C(NC5=O)C)C)C
How it was run: as §1

epoxomicin = compound: CC[C@H](C)[C@@H](C(=O)N[C@@H]([C@@H](C)O)C(=O)N[C@@H](CC(C)C)C(=O)[C@]1(CO1)C)NC(=O)[C@H]([C@@H](C)CC)N(C)C(=O)C [epoxomicin]
How it was run: as §1

[3] = compound: CCn1c(C(=O)N(C2CC2)C2CC2)cc2c3c(ncn3C)c(Nc3cc(C)n(C)n3)nc21
How it was run: as §1

[4] = compound: CCn1cc(-c2ccnc3[nH]c(-c4cccc(CN(C)C)c4)cc23)c(-c2ccc(NC(=O)N(C)C)cc2)n1
How it was run: as §1

[5] = compound: CN(C)CC(=O)Nc1ccc2[nH]c(=O)c3ccccc3c2c1
How it was run: as §1

rosiglitazone = compound: CN(CCOC1=CC=C(C=C1)C[C@H]2C(=O)NC(=O)S2)C3=CC=CC=N3 (racemic) [rosiglitazone]
How it was run: as §1

[6] = compound: CN1C2=C(C3=C1C(=O)N(N=C3)CC4=CC(=CC=C4)N)SC(=C2)S(=O)C
How it was run: as §1

[7] = compound: CN1CCC(CNc2ccc3ncc(-c4cccc(OC(F)(F)F)c4)n3n2)CC1
How it was run: as §1

saracatinib = compound: CN1CCN(CCOc2cc(OC3CCOCC3)c3c(Nc4c(Cl)ccc5c4OCO5)ncnc3c2)CC1 [saracatinib]
How it was run: as §1

sotrastaurin = compound: CN1CCN(c2nc(C3=C(c4c[nH]c5ccccc45)C(=O)NC3=O)c3ccccc3n2)CC1 [sotrastaurin]
How it was run: as §1

alvocidib = compound: CN1CC[C@H](c2c(O)cc(O)c3c(=O)cc(-c4ccccc4Cl)oc23)[C@H](O)C1 [alvocidib]
How it was run: as §1

Tubastatin A = compound: CN1CCc2c(c3ccccc3n2Cc2ccc(C(=O)NO)cc2)C1 [Tubastatin A]
How it was run: as §1

[8] = compound: CNC(=O)C1=CC=CC=C1NC2=NC(=NC=C2Cl)NC3=C(C=C(C=C3)N4CCOCC4)OC
How it was run: as §1

defactinib = compound: CNC(=O)c1ccc(Nc2ncc(C(F)(F)F)c(NCc3nccnc3N(C)S(C)(=O)=O)n2)cc1 [defactinib]
How it was run: as §1

rucaparib = compound: CNCc1ccc(-c2[nH]c3cc(F)cc4c3c2CCNC4=O)cc1 [rucaparib]
How it was run: as §1

[9] = compound: CNc1nc(-c2ccc3c(N)n[nH]c3c2)cc(N2C[C@@H](C(=O)NC3CCCCC3)CC[C@H]2C)n1
How it was run: as §1

encorafenib = compound: COC(=O)N[C@@H](C)CNc1nccc(-c2cn(C(C)C)nc2-c2cc(Cl)cc(NS(C)(=O)=O)c2F)n1 [encorafenib]
How it was run: as §1

[10] = compound: COC(=O)[C@H](CCSC)NC(=O)C1=C(C=C(C=C1)NC[C@H](CS)N)C2=CC=CC=C2
How it was run: as §1

Measured: log2 fold change

SYNCRIP isoform 3 (UniProt O60506)
inactive: [1] 0.142 | volasertib 0.084 | [2] -0.008 | epoxomicin -0.213 | [3] 0.104 | [4] 0.09 | [5] -0.112 | rosiglitazone -0.019 | [6] 0.082 | [7] 0.173 | saracatinib -0.014 | sotrastaurin -0.229 | alvocidib 0.137 | Tubastatin A -0.01 | [8] 0.016 | defactinib 0.166 | rucaparib 0.23 | [9] -0.005 | encorafenib -0.005 | [10] 0

TAPT1 (UniProt Q6NXT6)
inactive: [1] 0 | volasertib 0.045 | [2] -0.04 | epoxomicin -0.058 | [3] -0.014 | [4] 0.033 | [5] 0.015 | rosiglitazone 0.046 | [6] -0.028 | [7] 0.007 | saracatinib 0.017 | sotrastaurin 0.036 | alvocidib -0.054 | Tubastatin A 0.021 | [8] -0.017 | defactinib -0.02 | rucaparib -0.023 | [9] -0.064 | encorafenib 0.029 | [10] 0.013

TAB1 (UniProt Q15750)
inactive: [1] 0.005 | volasertib -0.233 | [2] 0.074 | epoxomicin 0.099 | [3] -0.048 | [4] -0.099 | [5] 0.041 | rosiglitazone -0.009 | [6] 0.045 | [7] -0.006 | saracatinib -0.077 | sotrastaurin -0.086 | alvocidib 0.008 | Tubastatin A 0.115 | [8] -0.012 | defactinib -0.129 | rucaparib -0.085 | [9] -0.035 | encorafenib 0.067 | [10] -0.05

SUB1 (UniProt P53999)
inactive: [1] -0.047 | volasertib 0.037 | [2] 0.019 | epoxomicin -0.009 | [3] -0.001 | [4] -0.001 | [5] -0.038 | rosiglitazone 0.011 | [6] -0.01 | [7] -0.041 | saracatinib 0.013 | sotrastaurin 0.027 | alvocidib 0.006 | Tubastatin A 0.003 | [8] -0.019 | defactinib 0.001 | rucaparib -0.034 | [9] -0.02 | encorafenib -0.054 | [10] 0.035

STXBP3 (UniProt O00186)
inactive: [1] -0.031 | volasertib -0.335 | [2] 0.075 | epoxomicin 0.014 | [3] -0.139 | [4] -0.096 | [5] 0.034 | rosiglitazone 0.097 | [6] 0.069 | [7] -0.087 | saracatinib -0.06 | sotrastaurin -0.272 | alvocidib -0.053 | Tubastatin A 0.087 | [8] -0.071 | defactinib -0.052 | rucaparib 0.181 | [9] 0.092 | encorafenib 0.156 | [10] -0.063

STRN4 isoform 3 (UniProt Q9NRL3)
inactive: [1] -0.05 | volasertib -0.084 | [2] -0.017 | epoxomicin 0.072 | [3] -0.001 | [4] -0.135 | [5] 0.006 | rosiglitazone 0.024 | [6] -0.038 | [7] -0.056 | saracatinib 0.096 | sotrastaurin -0.001 | alvocidib -0.085 | Tubastatin A -0.012 | [8] 0.064 | defactinib -0.058 | rucaparib -0.058 | [9] -0.044 | encorafenib -0.003 | [10] -0.042

TANGO2 isoform 4 (UniProt Q6ICL3)
inactive: [1] -0.008 | volasertib -0.002 | [2] 0.037 | epoxomicin -0.001 | [3] 0 | [4] -0.032 | [5] -0.016 | rosiglitazone 0.022 | [6] -0.133 | [7] -0.013 | saracatinib -0.021 | sotrastaurin 0.028 | alvocidib -0.087 | Tubastatin A 0.024 | [8] -0.017 | defactinib -0.09 | rucaparib -0.045 | [9] -0.067 | encorafenib -0.046 | [10] 0.004

STX10 (UniProt O60499)
inactive: [1] -0.213 | volasertib -0.02 | [2] -0.055 | epoxomicin 0.017 | [3] -0.059 | [4] -0.062 | [5] 0.013 | rosiglitazone 0.035 | [6] -0.052 | [7] -0.093 | saracatinib 0.011 | sotrastaurin -0.082 | alvocidib -0.059 | Tubastatin A -0.009 | [8] -0.037 | defactinib 0.011 | rucaparib 0.008 | [9] -0.018 | encorafenib 0.17 | [10] -0.017

STMN3 (UniProt Q9NZ72)
inactive: [1] 0.023 | volasertib 0.087 | [2] -0.011 | epoxomicin 0.121 | [3] 0.109 | [4] 0.057 | [5] -0.031 | rosiglitazone -0.019 | [6] 0 | [7] -0.011 | saracatinib 0.083 | sotrastaurin 0.02 | alvocidib 0.097 | Tubastatin A 0.139 | [8] -0.063 | defactinib -0.021 | rucaparib -0.076 | [9] -0.143 | encorafenib -0.054 | [10] 0.004

STT3A (UniProt P46977)
inactive: [1] -0.015 | volasertib 0.014 | [2] -0.025 | epoxomicin 0 | [3] 0.028 | [4] 0.01 | [5] -0.017 | rosiglitazone 0.009 | [6] -0.002 | [7] 0.005 | saracatinib -0.002 | sotrastaurin -0.008 | alvocidib 0.052 | Tubastatin A -0.037 | [8] 0.003 | defactinib 0.046 | rucaparib -0.007 | [9] -0.026 | encorafenib 0.04 | [10] -0.008

Reprinted at random: two records from the list, in no set order.
TANGO2 isoform 4 (UniProt Q6ICL3)
inactive: [1] -0.008 | volasertib -0.002 | [2] 0.037 | epoxomicin -0.001 | [3] 0 | [4] -0.032 | [5] -0.016 | rosiglitazone 0.022 | [6] -0.133 | [7] -0.013 | saracatinib -0.021 | sotrastaurin 0.028 | alvocidib -0.087 | Tubastatin A 0.024 | [8] -0.017 | defactinib -0.09 | rucaparib -0.045 | [9] -0.067 | encorafenib -0.046 | [10] 0.004

STRN4 isoform 3 (UniProt Q9NRL3)
inactive: [1] -0.05 | volasertib -0.084 | [2] -0.017 | epoxomicin 0.072 | [3] -0.001 | [4] -0.135 | [5] 0.006 | rosiglitazone 0.024 | [6] -0.038 | [7] -0.056 | saracatinib 0.096 | sotrastaurin -0.001 | alvocidib -0.085 | Tubastatin A -0.012 | [8] 0.064 | defactinib -0.058 | rucaparib -0.058 | [9] -0.044 | encorafenib -0.003 | [10] -0.042

Next entries follow:

SURF6 (UniProt O75683)
inactive: [1] 0.256 | volasertib 0.484 | [2] -0.145 | epoxomicin -0.366 | [3] -0.052 | [4] 0.329 | [5] -0.054 | rosiglitazone -0.15 | [6] 0.326 | [7] 0.488 | saracatinib -0.043 | sotrastaurin -0.091 | alvocidib 0.312 | Tubastatin A 0.023 | [8] -0.009 | defactinib 0.168 | rucaparib 0.217 | [9] 0.054 | encorafenib 0.044 | [10] 0.003

SUPV3L1 (UniProt Q8IYB8)
inactive: [1] -0.021 | volasertib -0.185 | [2] 0.025 | epoxomicin -0.001 | [3] -0.021 | [4] -0.004 | [5] -0.008 | rosiglitazone 0.022 | [6] -0.004 | [7] 0.005 | saracatinib 0.023 | sotrastaurin -0.056 | alvocidib 0.069 | Tubastatin A -0.012 | [8] -0.033 | defactinib -0.037 | rucaparib 0.027 | [9] -0.049 | encorafenib -0.005 | [10] 0.008

TAF7 (UniProt Q15545)
inactive: [1] -0.003 | volasertib -0.059 | [2] 0.027 | epoxomicin 0.142 | [3] 0.011 | [4] 0.019 | [5] -0.019 | rosiglitazone 0.005 | [6] 0.039 | [7] 0.036 | saracatinib 0.034 | sotrastaurin -0.027 | alvocidib -0.036 | Tubastatin A 0.101 | [8] -0.021 | defactinib -0.107 | rucaparib -0.046 | [9] -0.009 | encorafenib -0.004 | [10] -0.001

STX12 (UniProt Q86Y82)
inactive: [1] 0.052 | volasertib 0.059 | [2] -0.013 | epoxomicin 0.058 | [3] 0.045 | [4] -0.017 | [5] 0.003 | rosiglitazone -0.021 | [6] -0.026 | [7] -0.091 | saracatinib 0.025 | sotrastaurin 0.039 | alvocidib 0.033 | Tubastatin A -0.03 | [8] -0.03 | defactinib -0.021 | rucaparib -0.014 | [9] -0.055 | encorafenib 0.004 | [10] 0.01

TACO1 (UniProt Q9BSH4)
inactive: [1] -0.293 | volasertib -0.041 | [2] -0.012 | epoxomicin 0.076 | [3] -0.013 | [4] -0.147 | [5] 0.078 | rosiglitazone 0.133 | [6] -0.012 | [7] -0.207 | saracatinib 0.048 | sotrastaurin -0.159 | alvocidib -0.218 | Tubastatin A 0.266 | [8] -0.027 | defactinib -0.116 | rucaparib -0.038 | [9] 0.012 | encorafenib 0.04 | [10] 0.019

SYAP1 (UniProt Q96A49)
inactive: [1] -0.033 | volasertib -0.088 | [2] 0.035 | epoxomicin 0.05 | [3] -0.02 | [4] -0.008 | [5] -0.01 | rosiglitazone 0.039 | [6] -0.038 | [7] -0.076 | saracatinib -0.004 | sotrastaurin -0.008 | alvocidib 0.001 | Tubastatin A -0.013 | [8] 0.106 | defactinib -0.017 | rucaparib -0.052 | [9] -0.039 | encorafenib 0.023 | [10] 0.002
